This passage reports T/C and survivor count results from PubChem BioAssay AID330 (DTP/NCI, 2004).

For the experiment, the system named is P388 leukemia ip, CD2F1 mice, survival T/C. Put plainly: NCI In Vivo Anticancer Drug Screen. Data for tumor model P388 Leukemia (intraperitoneal) in CD2F1 (CDF1) mice. To be noted: T/C endpoint: median survival time, higher T/C = longer survival.
[1] abbreviates: dose: 200.0 mg/kg/injection, schedule: Q01DX005 (ip), vehicle: saline.
Setting [2] is: dose: 60.0 mg/kg/injection, schedule: Q01DX005 (ip), vehicle: saline with Tween-80.
[3] abbreviates: dose: 120.0 mg/kg/injection, schedule: Q01DX005 (ip), vehicle: saline with Tween-80.
Setting [4] is: dose: 120.0 mg/kg/injection, schedule: Q01DX005 (ip), vehicle: saline.
Setting [5] is: dose: 240.0 mg/kg/injection, schedule: Q01DX005 (ip), vehicle: saline.
The mark [6] stands for this setting: dose: 200.0 mg/kg/injection, schedule: Q01DX009 (ip), vehicle: saline.
Where [7] appears, read: dose: 25.0 mg/kg/injection, schedule: Q01DX009 (ip), vehicle: saline with Tween-80.
The mark [8] stands for this setting: dose: 50.0 mg/kg/injection, schedule: Q01DX009 (ip), vehicle: saline with Tween-80.
[9] abbreviates: dose: 200.0 mg/kg/injection, schedule: Q01DX005 (ip), vehicle: Klucel (hydroxypropylcellulose) (HPC).
Setting [10] is: dose: 240.0 mg/kg/injection, schedule: Q01DX005 (ip), vehicle: saline with Tween-80.
The mark [11] stands for this setting: dose: 100.0 mg/kg/injection, schedule: Q01DX005 (ip), vehicle: saline with Tween-80.

The structures appear in SMILES notation. The list shows only some results of the screen, not a fair sample: it gathers tests that were run many times, whatever their T/C, doses with no T/C, and many T/C values between a quarter and a half above the control. Further doses and runs are listed elsewhere. T/C gives the treated animals as a percentage of the vehicle group. Some entries give survivors of the animals treated and no T/C: the source files T/C as zero there, which appears to mark a toxic dose or a test without result, not a measured value. Some survivor counts are full or nearly so, which does not show that the dose was tolerated: the source hardly ever lists a survival T/C far under the control, and the zero likely stands for such cases as well. Counts of survivors are from the toxicity check (mostly the fifth day) where no day follows; animals may have died later. Schedules are NCI's codes, read here as Q, the interval in days (D) or hours (H), X, the number of doses. Some entries were tested several times; the values are given in rising order. Some structures stand for samples that the source files as different forms (salt, stereo form or complex); doses refer to the form tested. Where survival is the endpoint, this PubChem deposit counts one and a half times the control or more as active, and values a quarter to a half above the control carry no call in these data; other NCI protocols may use other cut-offs.

As for `Cc1ccc(NCCNCC(O)CO)c2c(=O)c3ccccc3sc12` (stereo not given), the T/C (dose: 50.0 mg/kg/injection, schedule: Q01DX005 (ip), vehicle: Klucel (hydroxypropylcellulose) (HPC)) is 140 % of control. The survivor count runs as follows: (dose: 100.0 mg/kg/injection, schedule: Q01DX005 (ip), vehicle: Klucel (hydroxypropylcellulose) (HPC)) 1 of 5; (dose: 100.0 mg/kg/injection, schedule: Q01DX005 (ip), vehicle: saline) 1 of 5; under setting [1], 0 of 5.

Turning to `Cn1c(=O)c2c(nc(NCC[N+](C)(C)Cc3ccc(Cl)cc3)n2C)n(C)c1=O`, the survivor count by setting is: (dose: 50.0 mg/kg/injection, schedule: Q01DX009 (ip), vehicle: Klucel (hydroxypropylcellulose) (HPC)) 0 of 6; (dose: 100.0 mg/kg/injection, schedule: Q01DX009 (ip), vehicle: Klucel (hydroxypropylcellulose) (HPC)) 0 of 6; (dose: 200.0 mg/kg/injection, schedule: Q01DX009 (ip), vehicle: Klucel (hydroxypropylcellulose) (HPC)) 0 of 6.

For the compound `CC1CN(Cc2ccccc2)CCC1N1CCCCC1` (stereo not given), the survivor count under setting [1] was 0 of 6.

Take `O=C(Nc1cc(-c2ccccc2)[nH]n1)c1ccccc1F`: the survivor count was 6 of 6 under setting [2] and 6 of 6 under setting [3].

Regarding `CCC(CC)C(=O)NN(C)C`, the survivor count under setting [1] was 2 of 6.

On to `C=C(CN(C)C)C(=O)c1ccccc1`, for which the survivor count runs as follows: (dose: 7.5 mg/kg/injection, schedule: Q01DX005 (ip), vehicle: saline) 1 of 6 and 4 of 6; (dose: 10.0 mg/kg/injection, schedule: Q01DX005 (ip), vehicle: saline) 1 of 6; (dose: 15.0 mg/kg/injection, schedule: Q01DX005 (ip), vehicle: saline) 0 of 6; (dose: 20.0 mg/kg/injection, schedule: Q01DX005 (ip), vehicle: saline) 0 of 6; (dose: 30.0 mg/kg/injection, schedule: Q01DX005 (ip), vehicle: saline) 0 of 6; (dose: 60.0 mg/kg/injection, schedule: Q01DX005 (ip), vehicle: saline) 0 of 6. Moreover, the survivor count is recorded as 0 of 6 under setting [4] and 0 of 6 under setting [5].

As for `CCOP(=O)(OCC)C1CCC(=O)O1` (stereo not given), the survivor count is 0 of 6 under setting [4] and 0 of 6 under setting [5].

Consider `CCN(CC)CCNCc1cc(Cl)c2cccnc2c1O`, for which, under setting [6], the survivor count is 0 of 6.

`Cc1ccc(-c2cnc3c(n2)c(=O)[nH]c(=O)n3C)cc1`: the survivor count (dose: 400.0 mg/kg/injection, schedule: Q04DX003 (ip), vehicle: Klucel (hydroxypropylcellulose) (HPC)) is on record as 2 of 6.

Regarding `CC(=O)Nc1ccc(C(=O)C=O)cc1`, the T/C is 130 % of control under setting [7]; 125 and 127 % of control under setting [8]; 137 % of control (dose: 100.0 mg/kg/injection, schedule: Q01DX009 (ip), vehicle: saline with Tween-80). The survivor count (dose: 200.0 mg/kg/injection, schedule: Q01DX009 (ip), vehicle: saline with Tween-80) was 5 of 6.

`CCCCOC(C(=O)OCCN(CC)CC)(c1ccccc1)c1ccccc1`: the survivor count under setting [9] is given as 0 of 5.

On to `O=C(CNCCCCNCCCNCC(=O)C(O)C(O)C(O)CO)C(O)C(O)C(O)CO` (stereo not given), for which the survivor count is 3 of 6 and 5 of 6 under setting [4]; 0 of 6 under setting [5].

In the case of `CC1=NCCN1CCNC(=O)c1ccc(C(=O)NCCN2CCN=C2C)cc1`, the survivor count reads like this: (dose: 15.0 mg/kg/injection, schedule: Q01DX005 (ip), vehicle: saline with Tween-80) 0 of 6; (dose: 30.0 mg/kg/injection, schedule: Q01DX005 (ip), vehicle: saline with Tween-80) 0 of 6; under setting [2], 0 of 6; under setting [3], 0 of 6; under setting [10], 0 of 6.

`COc1ccc2c(c1O)-c1cc(O)cc3c1C(C2)NCC3` (stereo not given): the survivor count (dose: 10.0 mg/kg/injection, schedule: Q04DX003 (ip), vehicle: DMSO) is on record as 0 of 6.

Regarding `Cc1cc(NC(=O)CCc2ccc(N3C(N)=NC(N)=NC3(C)C)cc2)ccc1S(=O)(=O)F`, the T/C (dose: 3.0 mg/kg/injection, schedule: Q01DX009 (ip), vehicle: saline sonified) is 127 % of control; the T/C (dose: 3.13 mg/kg/injection, schedule: Q01DX009 (ip), vehicle: saline with Tween-80) is 136 % of control; the T/C (dose: 6.0 mg/kg/injection, schedule: Q01DX009 (ip), vehicle: saline sonified) is 140 % of control; the T/C (dose: 6.25 mg/kg/injection, schedule: Q01DX009 (ip), vehicle: saline with Tween-80) was 145 % of control; the T/C (dose: 12.5 mg/kg/injection, schedule: Q01DX009 (ip), vehicle: saline with Tween-80) was 127 and 145 % of control; the T/C under setting [7] is 145 % of control. Further, the T/C under setting [8] is 140 % of control.

For the compound `O=C(Nc1ccc(Cl)cc1)Nc1nnc(/C=C/c2ccccc2)o1`, the survivor count under setting [10] is 6 of 6.

For `CC(=O)C[n+]1ccccc1Cc1ccccc1`, the survivor count under setting [11] was 2 of 5.

With `CC(=O)OCn1cc2c3c(cccc31)C1CC(C)CN(C)C1C2` (stereo not given), the survivor count is given as 3 of 6 under setting [11] and 0 of 6 (dose: 200.0 mg/kg/injection, schedule: Q01DX005 (ip), vehicle: saline with Tween-80).

Consider `N#Cc1c(-c2ccc(F)cc2)c(-c2ccc(F)cc2)nn(CCO)c1=O`, for which the T/C by setting is: (dose: 50.0 mg/kg/injection, schedule: Q04DX002 (ip), vehicle: distilled water + Tween-80) 142 % of control; (dose: 100.0 mg/kg/injection, schedule: Q01DX005 (ip), vehicle: distilled water + Tween-80) 126 % of control. The survivor count runs as follows: (dose: 200.0 mg/kg/injection, schedule: Q04DX002 (ip), vehicle: distilled water + Tween-80) 5 of 6 and 6 of 6; (dose: 800.0 mg/kg/injection, schedule: Q01DX005 (ip), vehicle: distilled water + Tween-80) 3 of 6.

For `O=C(CBr)C(=O)OCc1ccccc1`, the survivor count reads like this: (dose: 12.5 mg/kg/injection, schedule: Q01DX009 (ip), vehicle: other) 3 of 6; (dose: 12.5 mg/kg/injection, schedule: Q01DX009 (ip), vehicle: water) 6 of 6; (dose: 25.0 mg/kg/injection, schedule: Q01DX009 (ip), vehicle: other) 0 of 6; (dose: 50.0 mg/kg/injection, schedule: Q01DX009 (ip), vehicle: other) 0 of 6; (dose: 100.0 mg/kg/injection, schedule: Q01DX009 (ip), vehicle: other) 0 of 6; (dose: 200.0 mg/kg/injection, schedule: Q01DX009 (ip), vehicle: other) 0 of 6.

In the case of `ClCCN(CCCl)CCNc1ccnc2cc(Cl)ccc12`, for the setting “dose: 0.4 mg/kg/injection, schedule: Q01DX009 (ip), vehicle: saline”, the survivor count is on record as 6 of 6. The T/C is, setting by setting: (dose: 1.32 mg/kg/injection, schedule: Q04DX003 (ip), vehicle: saline) 127 % of control; (dose: 2.0 mg/kg/injection, schedule: Q01DX009 (ip), vehicle: saline sonified) 136 % of control; (dose: 3.0 mg/kg/injection, schedule: Q04DX003 (ip), vehicle: saline) 127 % of control.

Take `CCN(CC)C(=NC(C)C)c1ccccc1`: the survivor count is 0 of 6 (dose: 50.0 mg/kg/injection, schedule: Q01DX009 (ip), vehicle: saline); 0 of 6 (dose: 100.0 mg/kg/injection, schedule: Q01DX009 (ip), vehicle: saline); 0 of 6 under setting [6].

Consider `Nc1c(Cl)ncnc1NCCN1CCOCC1`, for which the survivor count under setting [9] is given as 0 of 6.
